# Primary screen of a compound library

The values are deposited in ChEMBL (CHEMBL3988442, “University of Dundee, Small-Polar-MMV Screening Library” (2021)).

Mtb heat-shock: 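Assay on Mycobacterium tuberculosis, filed only as a heat shock assay from Cornell; the read-out is not stated. The concentration is filed as 10 mM, unlikely as a test dose, so the dose is not known. The record gives no direction; compounds that gave an IC50 in retests scored well above the rest, so higher reads as stronger inhibition. Size under these conditions: about 69,000 compounds, about 930 of them at 50% or above in at least one test.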
Mtb growth Cornell: 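Whole-cell assay for inhibitors of Mycobacterium tuberculosis growth, labelled Cornell in the record; the read-out is not stated. The concentration is filed as 10 mM, unlikely as a test dose, so the dose is not known. Higher means stronger inhibition (inferred from two other growth screens of the library). About 53,000 compounds were tested under these conditions; 1.7% (about 900) showed 50% or more at least once.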

The filed quantity is “Percent Effect” (%). The controls that fix the scale are not given in the record; negative values are as filed. This is an unselected part of the compounds tested. A dash means the value is not listed here; it may have been measured.

compound | Mtb heat-shock | Mtb growth Cornell
COc1ccc(C(=O)N2CC(=O)N(Cc3cccs3)CC(O)C2)cc1 (configuration not stated) | 14.04% | 0.1762%
O=C(CO)N1CCC(F)(F)C2(CCN(c3ccccc3)C2)C1.O=C(O)C(F)(F)F (configuration not stated) | 34.47% | -21.37%
CC(=O)N1CCC(c2nn(C)c(=O)n2-c2ccccc2)CC1 | 2.186% | -10.75%
NC(=O)CCN(C(=O)CSc1ccc(F)cc1)c1ccc(F)cc1 | -35.13% | -2.884%
CCOCC1CN(S(=O)(=O)C2CC2)Cc2ncn(CC3CC3)c21 (configuration not stated) | -19.14% | -
CCNc1ncc(CN(CCN(C)C)Cc2ccc(C)s2)cn1 | 2.161% | 32.48%
[H][C@]12CC[C@](O)(CC1)C(CN1CCOCC1)N2S(=O)(=O)c1ccccc1 (some centres not stated) | -28.69% | 5.667%
Cc1ccccc1-n1cc(-c2ccnc(NC(CO)C(C)C)n2)cn1 (configuration not stated) | -0.4493% | 6.159%
CN(Cc1cnn(C)c1)C(=O)CCC(=O)c1ccc2c(c1)OCCO2 | -25.11% | 2.156%
CNC(=O)CS(=O)(=O)Cc1coc(-c2ccc(OC)cc2)n1 | -12.15% | -
CNCC(=O)Nc1ccc(-c2cnc(NCCS(C)(=O)=O)nc2)cc1 | -17.19% | -16.21%
Cc1ccc(N2CCCC(N(C)Cc3noc(C4CC4)n3)C2)nn1 (configuration not stated) | 12.01% | 3.712%
[H][C@]12CC[C@]([H])(CN(Cc3snnc3C)C1)N(Cc1c(C)noc1C)C2=O | 7.088% | -6.654%
Cc1ccc(C)c2c(C)c(C(=O)NCC[S+](C)[O-])[nH]c12 (configuration not stated) | 17.67% | -68.86%
Cc1cccnc1CNC(=O)NC(C)Cc1c(C)nn(C)c1C (configuration not stated) | -2.319% | 1.018%
CCCn1ncc2c(C(=O)Nc3cnn(CC)c3C)cc(C3CC3)nc21 | 5.976% | -
COCC(NC(=O)c1cccnc1)c1cccc(C(F)(F)F)c1 (configuration not stated) | -3.128% | 5.404%
CCn1cc(S(=O)(=O)NC(CO)Cc2ccccc2)cn1 (configuration not stated) | 2.044% | 8.576%
CC(CN1CCOC1=O)NC(=O)c1cccc2cc[nH]c12 (configuration not stated) | -38.84% | 7.448%
O=C(O)C(F)(F)F.O=C(O)C(F)(F)F.[H][C@@]12CCN(C(=O)c3ccncc3)CC[C@@]1([H])N(c1cccnc1)CCO2 | -30.66% | 22.53%
CCCNC(=O)C(C)N1CCC(C(=O)Nc2cnn(CC)c2)CC1 (configuration not stated) | -7.876% | -1.052%
CC(C)n1cnnc1CN(C)Cc1cnc(-c2ccco2)nc1 | 13.95% | 28.15%
CN(Cc1nnc2n1CCC2)C(=O)Cc1ccc2c(c1)OCCO2 | 8.174% | 4.568%
[H][C@]12CC[C@]([H])(CN(Cc3cccnc3)C1)N(C(=O)OC(C)C)C2 | -8.082% | -
COc1ccccc1CC(C)CC(=O)O (configuration not stated) | 20.59% | 29.74%
COC(=O)c1ccc(Cn2nc(C)cc2C)c(F)c1 | 0.6152% | -0.1203%
COC(=O)CC(NC(=O)c1ccccc1OC)c1cccs1 (configuration not stated) | -20.55% | -13.26%
Cc1cc(CN2CCN(C(=O)NCc3csc(C)n3)CC2)on1 | -1.856% | -25.78%
CC(=O)N1CCCC2(CCN(C(=O)c3nn(C)c4ccccc34)CC2)C1 | -13.76% | -
CC(=O)NCC(=O)N1CCOC2(CCCN(c3ccc(C)nn3)C2)C1 (configuration not stated) | -6.655% | 21.69%
O=C(c1ccco1)N1CCC(n2cc(-c3ccsc3)nn2)CC1 | -7.61% | 1.069%
Cc1cc(NC(C)Cn2cccn2)n2nccc2n1 (configuration not stated) | 44.86% | -
COCc1nc(N(C)C)ncc1C(=O)Nc1ccc(Cl)cc1 | 5.93% | -
CC(C)(NCc1cccc(C#N)c1)c1ccc2c(c1)OCO2 | 2.85% | 2.556%
O=C1N(C2CCOCC2)CCCC12CCN(c1ncccc1Cl)C2 (configuration not stated) | -17.5% | 11.5%
CCC(C(=O)NCc1ccncc1)N(c1ccccc1)S(C)(=O)=O (configuration not stated) | -36.36% | -5.279%
O=C(O)C(F)(F)F.O=C1CC2(CNCCN(C(=O)Nc3ccccc3)C2)CN1 (configuration not stated) | -11.43% | -
CNC(=O)C1CN(C(=O)c2cccs2)CCN(S(C)(=O)=O)C1 (configuration not stated) | -2.413% | 18.15%
COCC(C)NC(=O)CN1CCC(CO)CC1 (configuration not stated) | 8.265% | 10.44%
CN(C)Cc1cncc2c1CCN(Cc1cnn(C)c1)C2.Cl.Cl.Cl | -11.37% | 0.6225%
CCN(CC)c1ncccc1CNCc1ccc(Cl)s1 | 8.984% | 24.04%
O=C(c1ccno1)N1CCC2(CC1)C(=O)N(CC1CC1)c1ccccc12 | -0.1524% | 5.459%
CCc1ccc(CN2CCC3(CC2)CN(c2cnn(C)c2)C(=O)CO3)o1.O=C(O)C(F)(F)F.O=C(O)C(F)(F)F | -19.01% | 15.03%
CC(=O)c1ccc(NC(=O)C(C)Cn2cc(Br)cn2)cc1 (configuration not stated) | -6.432% | 49.06%
O=C(CN1C(=O)CCCc2sccc21)NC1CCc2nccn2C1 (configuration not stated) | 26.75% | -
CC(C)N(C)Cc1nnc2n1CCCN(c1cnccn1)C2 | 6.773% | 24.68%
N#Cc1ccc(CN2CCN(c3ccncc3Cl)CC2=O)cc1 | -37.62% | -3.711%
COCc1noc(Cc2c(C)nn(C)c2C)n1 | 5.843% | 34.82%
COc1c(C2CCCN2CC(=O)Nc2ccncc2)c(C)nn1C (configuration not stated) | -13.58% | -
CC(NC(=O)CCOc1ccc(F)cc1)c1nnc2n1CCCCC2 (configuration not stated) | -1.918% | -
Cc1ccccc1-c1cncc(C2CCN(S(=O)(=O)N(C)C)CC2)n1 | -3.918% | 46.79%
COCCn1cc(C(=O)N2CCCC2c2ccc(F)cc2)ccc1=O (configuration not stated) | -12.64% | -2.7%
CCCC(=O)N1CCCCC1C(=O)Nc1ccc(-c2nnc[nH]2)cc1 (configuration not stated) | -2.068% | -
O=C(CCN1CCOCC1)NC(Cc1ccsc1)c1nccs1 (configuration not stated) | 0.152% | 43.1%
Cn1cc(CN2Cc3c(cnn3C)C(COCC3CC3)C2)cn1.O=C(O)C(F)(F)F.O=C(O)C(F)(F)F (configuration not stated) | -38.19% | -28.75%
CC(C)(C)c1noc(CN2CCCc3cc(OC(F)(F)F)ccc32)n1 | -10.93% | 12.22%
O=C(c1nc2c(s1)CCCN2C(=O)C1CC1)N1CCOCC1 | 3.276% | 16.78%
CN(C)C(=O)CCS(=O)(=O)Cc1coc(-c2ccc(F)cc2)n1 | 11.93% | -
O=C(O)C(F)(F)F.O=C(O)C(F)(F)F.[H][C@@]12CCN(Cc3ccncc3)C[C@]1(C(=O)N1CCOCC1)CCO2 | 6.119% | 1.937%
CCCN(CCn1c(=O)oc2ccccc21)CC1CC1 | 105% | 69.63%
Cc1nc(C)n(C2CCCN(C(=O)CCc3cn(C)nc3C)C2)n1 (configuration not stated) | -6.135% | -6.233%
O=C(O)C(c1ccc2c(c1)OCCO2)N1CCSCC1 (configuration not stated) | 5.649% | -11.76%
O=C(COCCOc1ccccc1)Nc1ccnn1CC1CCOC1 (configuration not stated) | 9.777% | 1.574%
O=C1CCCCN1CCc1nc(-c2cccnn2)no1 | 0.4901% | 9.666%
CCn1ncnc1C(C)Nc1cc(C2CCNCC2)nc(C)n1 (configuration not stated) | -21.99% | -8.521%
COc1cccc(CCC(=O)N2CCCCC2Cn2cccn2)c1 (configuration not stated) | -1.815% | -
CC(NC(=O)Nc1nnc(-c2ccccn2)s1)C(=O)OC(C)(C)C (configuration not stated) | 10.32% | -5.916%
Cn1cnnc1C1CCN(C(=O)CCCOCc2ccccc2)CC1 | -11.65% | -7.069%
CCc1cc(=O)[nH]c(-c2ccc(NCCC(C)O)nc2)n1 (configuration not stated) | -17.51% | 14.1%
COc1ccc(C[C@H]2CN(C(=O)CN(C)C)CC[C@H]2OC)cc1.O=C(O)C(F)(F)F | -20.14% | 3.213%
O=C(O)C(F)(F)F.[H][C@]12CN(CCN3CCCC3)C(=O)[C@@]1([H])CN(c1ncccn1)C2 | -2.09% | 1.191%

Repeated from the top, 7 entries:

compound	Mtb heat-shock	Mtb growth Cornell
COc1ccc(C(=O)N2CC(=O)N(Cc3cccs3)CC(O)C2)cc1 (configuration not stated)	14.04%	0.1762%
O=C(CO)N1CCC(F)(F)C2(CCN(c3ccccc3)C2)C1.O=C(O)C(F)(F)F (configuration not stated)	34.47%	-21.37%
CC(=O)N1CCC(c2nn(C)c(=O)n2-c2ccccc2)CC1	2.186%	-10.75%
NC(=O)CCN(C(=O)CSc1ccc(F)cc1)c1ccc(F)cc1	-35.13%	-2.884%
CCOCC1CN(S(=O)(=O)C2CC2)Cc2ncn(CC3CC3)c21 (configuration not stated)	-19.14%	-
CCNc1ncc(CN(CCN(C)C)Cc2ccc(C)s2)cn1	2.161%	32.48%
[H][C@]12CC[C@](O)(CC1)C(CN1CCOCC1)N2S(=O)(=O)c1ccccc1 (some centres not stated)	-28.69%	5.667%